One molecule from article PMC9779728 can be followed below.

This assay addresses T1, soluble human MerTK with TwinStrepII-Tag (hMerTK-TS) (human) (UniProt Q12866).
T1 sequence: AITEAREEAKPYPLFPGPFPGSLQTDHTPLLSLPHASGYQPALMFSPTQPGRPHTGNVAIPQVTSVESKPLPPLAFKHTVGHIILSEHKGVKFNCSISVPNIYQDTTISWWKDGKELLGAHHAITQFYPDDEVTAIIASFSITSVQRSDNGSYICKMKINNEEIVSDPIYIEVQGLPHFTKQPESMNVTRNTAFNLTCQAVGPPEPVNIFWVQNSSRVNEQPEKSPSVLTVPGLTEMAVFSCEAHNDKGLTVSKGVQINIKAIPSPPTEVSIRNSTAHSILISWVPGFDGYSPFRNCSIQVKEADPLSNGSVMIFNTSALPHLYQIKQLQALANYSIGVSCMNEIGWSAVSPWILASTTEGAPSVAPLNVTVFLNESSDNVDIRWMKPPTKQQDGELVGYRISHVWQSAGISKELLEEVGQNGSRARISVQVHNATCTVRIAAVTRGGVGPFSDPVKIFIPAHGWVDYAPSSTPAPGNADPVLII
As to the kind of experiment: BLI; Pros1 competition: MerK28 loaded onto AHC biosensors, associated to 500 nM hMerTK-TS alone or pre-incubated with an equimolar amount of Pros1; both purified.

Results are given in words; binding and its absence hold for the method and conditions named. Some entries that bind do so weakly or less than the wild type. Sequences can lack the tags named with a protein.

B1: Pros1 (anticoagulation factor protein S) (ligand, UniProt P07225 42-676)
chain: ANSLLEETKQGNLERECIEELCNKEEAREVFENDPETDYFYPKYLVCLRSFQTGLFTAARQSTNAYPDLRSCVNAIPDQCSPLPCNEDGYMSCKDGKASFTCTCKPGWQGEKCEFDINECKDPSNINGGCSQICDNTPGSYHCSCKNGFVMLSNKKDCKDVDECSLKPSICGTAVCKNIPGDFECECPEGYRYNLKSKSCEDIDECSENMCAQLCVNYPGGYTCYCDGKKGFKLAQDQKSCEVVSVCLPLNLDTKYELLYLAEQFAGVVLYLKFRLPEISRFSAEFDFRTYDSEGVILYAESIDHSAWLLIALRGGKIEVQLKNEHTSKITTGGDVINNGLWNMVSVEELEHSISIKIAKEAVMDINKPGPLFKPENGLLETKVYFAGFPRKVESELIKPINPRLDGCIRSWNLMKQGASGIKEIIQEKQNKHCLVTVEKGSYYPGSGIAQFHIDYNNVSSAEGWHVNVTLNIRPSTGTGVMLALVSGNNTVPFAVSLVDSTSEKSQDILLSVENTVIYRIQALSLCSDQQSHLEFRVNRNNLELSTPLKIETISHEDLQRQLAVLDKAMKAKVATYLGGLPDVPFSATPVNAFYNGCMEVNINGVQLDLDEAISKHNDIRAHSCPSVWKKTKNS
Consider B1, for which the binding entry is given as “binds”.
